Values quoted from earlier work in publication PMC10356901, “Mitochondria-derived peptide SHLP2 regulates energy homeostasis through the activation of hypothalamic neurons” (Nature Communications, 2023).

Details: cited from earlier work

Row | Substance | humanin level in human diseases | plasma levels with age | circulating MOTS-c in diabetes patients
1 | humanin: 24-amino-acid peptide encoded by the mitochondrial 16S ribosomal RNA gene | decreased in human diseases such as Alzheimer’s disease, mitochondrial encephalopathy, lactic acidosis, and stroke-like episodes | plasma levels tend to decline with age | –
2 | Mito chondrial Open Reading Frame of the 12S rRNA-c (MRWQEMGYIFYPRKLR; UniProt A0A0C5B5G6 1-16, looked up) [MOTS-c, mitochondrial-derived peptide encoded by the mitochondrial 12S rRNA gene] | – | plasma levels tend to decline with age | reduced in diabetes patients
